From PMC11649813
No constants are given. Whether binding was seen depends on the method and setting. Binding seen in cells or lysates may run through a third protein. Some results given as binding are weak or reduced against the parent protein; the word gives no strength.

The chains behind the UniProt entries cited, without tags or fusion partners.
UniProt Q9H4A6: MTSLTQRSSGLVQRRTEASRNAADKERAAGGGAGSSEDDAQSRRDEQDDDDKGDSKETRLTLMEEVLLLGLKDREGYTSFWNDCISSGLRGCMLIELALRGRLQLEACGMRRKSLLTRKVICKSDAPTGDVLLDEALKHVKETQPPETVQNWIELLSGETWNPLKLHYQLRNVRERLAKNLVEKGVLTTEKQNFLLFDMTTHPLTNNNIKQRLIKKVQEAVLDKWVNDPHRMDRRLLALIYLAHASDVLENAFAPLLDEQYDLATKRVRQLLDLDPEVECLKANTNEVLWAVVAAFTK
UniProt P53618: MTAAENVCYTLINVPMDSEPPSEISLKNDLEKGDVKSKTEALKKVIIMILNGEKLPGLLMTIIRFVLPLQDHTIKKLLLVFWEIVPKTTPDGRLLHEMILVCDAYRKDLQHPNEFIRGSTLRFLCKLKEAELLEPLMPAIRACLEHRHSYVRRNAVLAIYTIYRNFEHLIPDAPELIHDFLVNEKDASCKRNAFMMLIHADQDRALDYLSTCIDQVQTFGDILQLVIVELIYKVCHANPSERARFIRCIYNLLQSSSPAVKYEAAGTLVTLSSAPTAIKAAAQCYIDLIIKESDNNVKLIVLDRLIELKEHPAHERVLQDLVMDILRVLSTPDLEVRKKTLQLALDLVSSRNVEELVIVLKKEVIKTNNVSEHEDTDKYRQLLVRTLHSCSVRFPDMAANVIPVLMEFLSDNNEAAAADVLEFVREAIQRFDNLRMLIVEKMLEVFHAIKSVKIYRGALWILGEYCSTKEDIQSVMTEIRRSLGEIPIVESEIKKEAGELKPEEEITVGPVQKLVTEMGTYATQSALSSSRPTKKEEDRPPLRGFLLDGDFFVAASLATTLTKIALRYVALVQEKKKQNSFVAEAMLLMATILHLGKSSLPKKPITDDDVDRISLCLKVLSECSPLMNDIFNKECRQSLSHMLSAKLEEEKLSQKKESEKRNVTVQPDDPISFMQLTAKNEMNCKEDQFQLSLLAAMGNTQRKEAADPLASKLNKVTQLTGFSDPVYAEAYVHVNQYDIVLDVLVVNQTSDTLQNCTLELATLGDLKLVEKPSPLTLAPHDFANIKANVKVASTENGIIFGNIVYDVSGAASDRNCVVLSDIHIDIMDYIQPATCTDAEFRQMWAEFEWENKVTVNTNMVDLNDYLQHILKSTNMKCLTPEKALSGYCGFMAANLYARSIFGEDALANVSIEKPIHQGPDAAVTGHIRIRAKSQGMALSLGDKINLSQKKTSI

Target: GOLPH3 (overexpressed, untagged) (human) (UniProt Q9H4A6)
Test: co-IP; WT HEK293 transfectants lysed in 50 mM Tris pH 7.6, 150 mM NaCl, 2 mM EDTA, 0.5% Igepal CA-630; GOLPH3 immunoprecipitated overnight at 4 °C with anti-GOLPH3 (19112-1-AP or ab98023) and Protein A Dynabeads; immunoblot

Substance: cell-endogenous COPB, a subunit of the COPI coatomer (from UniProt P53618 1-953)
- binding: binds
